Experimental data: PubChem BioAssay AID743454 (Peter MacCallum Cancer Centre, 2014)

Test: 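Genes whose loss kills vorinostat-resistant colon cancer cells under vorinostat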 (primary screen)
Cell system: human HCT116-VR colon cancer cells, selected for vorinostat resistance
Reagent: siRNA pool against human genes, 40 nM siRNA pool
Timing: vorinostat for 24 h, read-out about 72 h after transfection
Conditions: vorinostat at 2.5 µM final
Read-out: 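Two measures, CellTiter-Fluor viability and luminescent caspase 3/7 activity, each as fold change against same-plate mock wells, mean of duplicates, then screen-wide robust z-score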
Direction: viability robust z-score: higher = more viable cells than screen typical; caspase robust z-score: higher = more caspase 3/7 activity than screen typical
Hit rule: 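Hits are knock-downs in viability class RV1/RV2 or caspase class CA1/CA2, excluding ones that killed cells in the no-drug cell-count arm; hits then retested with single siRNAs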
The whole screen tested about 18,000 reagents; below is a random part of them. Over the whole deposit, 450 (2.5%) were called active. 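Single biological run; no consistent viability z cut-off exists, so the class columns, not z-scores, define the calls.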 A number with no mark means an inactive call.

The first 7 entries, to show the layout:
target | viability hit class | caspase hit class | viability robust z-score | caspase robust z-score
MDC1 (mediator of DNA damage checkpoint 1) | no change | no change | 0.87 | 0.75
ZSCAN10 (zinc finger and SCAN domain containing 10) | no change | no change | 0.93 | -0.6
FAM219B (family with sequence similarity 219 member B) | no change | no change | -0.62 | -0.22
IFITM1 (interferon induced transmembrane protein 1) | no change | no change | -0.94 | -0.3
THOC5 (THO complex subunit 5) | no change (active) | CA1 (caspase activation) | -0.58 | 5.34
DUSP14 (dual specificity phosphatase 14) | no change | no change | 1.96 | -0.71
HAS2 (hyaluronan synthase 2) | no change | no change | 0.78 | -0.78

Results, from the first entry:
target | viability hit class | caspase hit class | viability robust z-score | caspase robust z-score
MDC1 (mediator of DNA damage checkpoint 1) | no change | no change | 0.87 | 0.75
ZSCAN10 (zinc finger and SCAN domain containing 10) | no change | no change | 0.93 | -0.6
FAM219B (family with sequence similarity 219 member B) | no change | no change | -0.62 | -0.22
IFITM1 (interferon induced transmembrane protein 1) | no change | no change | -0.94 | -0.3
THOC5 (THO complex subunit 5) | no change (active) | CA1 (caspase activation) | -0.58 | 5.34
DUSP14 (dual specificity phosphatase 14) | no change | no change | 1.96 | -0.71
HAS2 (hyaluronan synthase 2) | no change | no change | 0.78 | -0.78
TIMCC (TIM double twin CX3C motif chaperone) | no change | no change | -1.42 | -0.26
OSM (oncostatin M) | no change | no change | 0.88 | -0.23
CYLC2 (cylicin 2) | no change | no change | 1.05 | -0.36
HMGN5 (high mobility group nucleosome binding domain 5) | no change | no change | 0.24 | 0.16
TAAR1 (trace amine associated receptor 1) | no change | no change | 0.59 | -0.54
AVPR2 (arginine vasopressin receptor 2) | no change | no change | -0.01 | 1.05
DNM2 (dynamin 2) | no change | no change | 1.27 | 2.23
OTOF (otoferlin) | no change | no change | 0.68 | 0.63
NDRG1 (N-myc downstream regulated 1) | no change | no change | 1.1 | 1
PCF11 (PCF11 cleavage and polyadenylation factor subunit) | no change | no change | -2.36 | -0.22
ADH1A (alcohol dehydrogenase 1A (class I), alpha polypeptide) | no change | no change | -0.42 | -1.08
OR8B3 (olfactory receptor family 8 subfamily B member 3) | no change | no change | 0.71 | -0.52
TCIRG1 | no change | no change | -1.96 | -1.12
KRT1 (keratin 1) | no change | no change | 0.44 | -0.6
KIFC2 (kinesin family member C2) | no change | no change | 0.56 | 2.05
ZNF2 (zinc finger protein 2) | no change | no change | 0.98 | -0.66
SP7 (Sp7 transcription factor) | no change | no change | -2.09 | -0.66
BRINP3 (BMP/retinoic acid inducible neural specific 3) | no change | no change | 0.1 | 1.03
EFNB1 (ephrin B1) | no change | no change | -3.62 | 0.11
ABHD12 (abhydrolase domain containing 12, lysophospholipase) | no change | no change | -1.42 | 1.12
ZDHHC21 (zDHHC palmitoyltransferase 21) | no change | no change | 1.4 | -0.78
TFF2 (trefoil factor 2) | no change | no change | 0.32 | 0.14
FBXO40 (F-box protein 40) | no change | no change | -0.71 | 1.68
PGA3 (pepsinogen A3) | no change | no change | -0.23 | -0.33
SLC17A3 | no change | no change | -0.58 | -0.18
HSP90AA1 (heat shock protein 90 alpha family class A member 1) | no change | no change | 0.73 | -0.98
MKNK1 (MAPK interacting serine/threonine kinase 1) | no change | no change | 0.89 | 1.22
DIPK1A (divergent protein kinase domain 1A) | no change | no change | 0.82 | -0.4
NANP (N-acetylneuraminic acid phosphatase) | no change | no change | -1.31 | -1.09
P2RY6 (pyrimidinergic receptor P2Y6) | no change | no change | 0.76 | 0.88
HYCC1 (hyccin PI4KA lipid kinase complex subunit 1) | no change | no change | 1.99 | -0.79
GLA (galactosidase alpha) | no change | no change | -0.3 | 0.55
ZNRF3 (zinc and ring finger 3) | no change | no change | -0.62 | 2.14
SLC22A11 | no change | no change | -0.55 | 1.57
DPF2 (double PHD fingers 2) | no change | no change | -0.27 | -0.94
PABPN1 (poly(A) binding protein nuclear 1) | no change | no change | -0.43 | 3.6
RTP5 (receptor transporter protein 5 (putative)) | no change | no change | -0.27 | -0.47
NOPCHAP1 (NOP protein chaperone 1) | no change | no change | -0.06 | 0.19
OR2T3 (olfactory receptor family 2 subfamily T member 3) | no change | no change | -0.26 | -0.23
ATP2A3 | no change | no change | 0.59 | 3.91
ABCB7 (ATP binding cassette subfamily B member 7) | no change | no change | -0.55 | -0.44
CASQ1 (calsequestrin 1) | no change | no change | -1.56 | -0.06
CLK1 (CDC like kinase 1) | no change | no change | 0.12 | -1.11
GGN (gametogenetin) | no change | no change | 1.06 | 2.24
CAPZA2 (capping actin protein of muscle Z-line subunit alpha 2) | no change | no change | 0.6 | -0.08
SAXO4 (stabilizer of axonemal microtubules 4) | no change | no change | -1.06 | 2.56
SEPTIN10 (septin 10) | no change | no change | -1.64 | -0.31
RGMB (repulsive guidance molecule BMP co-receptor b) | no change | no change | 0.16 | -0.04
SNUPN (snurportin 1) | no change | no change | -0.11 | 3.09
MCHR1 (melanin concentrating hormone receptor 1) | no change | no change | -0.68 | 0.23
NDUFA8 (NADH:ubiquinone oxidoreductase subunit A8) | no change | no change | -0.62 | 2.93
LINC03040 (long independently transcribed non-coding RNA 3040) | no change | no change | 0.38 | -0.24
GOLM2 (golgi membrane protein 2) | no change | no change | 0.7 | 1.43
ITPR2 (inositol 1,4,5-trisphosphate receptor type 2) | no change | no change | -1.16 | 0.26
BMP2K (BMP2 inducible kinase) | no change | no change | 0.36 | 1.12
PI4KAP2 (phosphatidylinositol 4-kinase alpha pseudogene 2) | no change | no change | -0.32 | 2.27
KRTAP10-10 (keratin associated protein 10-10) | no change | no change | -2.2 | 2.01
RNF220 (ring finger protein 220) | no change | no change | 0.08 | 0.55
CCBE1 (collagen and calcium binding EGF domains 1) | RV2 (reduced viability) (active) | no change | -2.92 | 2.66
FAM124A (family with sequence similarity 124 member A) | no change | no change | -0.68 | 0.06
ADRB2 (adrenoceptor beta 2) | no change | no change | 1.34 | -0.88
SCD (stearoyl-CoA desaturase) | no change | no change | -0.82 | 0.47
CD3D (CD3 delta subunit of T-cell receptor complex) | no change | no change | 0.29 | 2.15
STMN2 (stathmin 2) | no change | no change | 1.03 | -0.2
RIPK3 (receptor interacting serine/threonine kinase 3) | no change | no change | -0.82 | -0.34
IL11 (interleukin 11) | no change | no change | -0.66 | 2.46
